Data as given in PubChem BioAssay AID1224830 (NIAID, 2016)
The deposit covers about 18,000 reagents; this is a part drawn at random. In the full data, about 2,900 (16%) got an active call. 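Calls are made per well; low scores hint the gene aids the LPS response, high scores that it dampens it.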 Repeated entries: four replicate wells of each siRNA pool. Reagent sequences are not shown.

Screen: 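Host factors that control LPS-induced TNF expression in human macrophages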 (primary screen)
Cells: human THP-1 monocytic leukaemia cells, TNF dual-luciferase reporter clone, PMA-differentiated to macrophage-like cells
Reagent: siRNA pool against human genes, 50 nM
Time to read-out: LPS for 4 h, given about 3 days after siRNA transfection
Treatment: bacterial LPS (TLR4 ligand), 10 ng/ml
Read-out: 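TNF firefly reporter luminescence divided by renilla, normalised to the plate median, then turned into a robust z-score for each replicate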
Scale: TNF reporter robust z-score: higher = stronger TNF reporter response to LPS
Active means: 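a well is active when its z-score exceeds 2.8 or falls below -1.5; control wells carry no call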

gene	TNF reporter robust z-score	Outcome
USP10	0.16	inactive
USP10	-0.33	inactive
USP10	-0.53	inactive
USP10	-1.27	inactive
CNOT4	0.68	inactive
CNOT4	0.64	inactive
CNOT4	0.57	inactive
CNOT4	2.93	active
METTL23	-0.43	inactive
METTL23	-0.56	inactive
METTL23	-0.35	inactive
METTL23	-0.77	inactive
PNLIPRP2	-0.51	inactive
PNLIPRP2	-0.62	inactive
PNLIPRP2	-0.13	inactive
PNLIPRP2	-0.48	inactive
TADA1	-0.76	inactive
TADA1	-0.16	inactive
TADA1	-0.25	inactive
TADA1	0.53	inactive
CSN2	1.35	inactive
CSN2	0.42	inactive
CSN2	-0.11	inactive
CSN2	-0.02	inactive
LYPD2	-1.44	inactive
LYPD2	-1.05	inactive
LYPD2	-1.64	active
LYPD2	-1.31	inactive
KRT18P55	0.13	inactive
KRT18P55	0.5	inactive
KRT18P55	0.43	inactive
KRT18P55	0.3	inactive
SAMD4B	0.8	inactive
SAMD4B	-0.45	inactive
SAMD4B	-0.7	inactive
SAMD4B	-1.34	inactive
BGN	-0.89	inactive
BGN	-0.83	inactive
BGN	-0.55	inactive
BGN	-0.42	inactive
CHCHD3	-0.63	inactive
CHCHD3	-0.42	inactive
CHCHD3	1.31	inactive
CHCHD3	-0.41	inactive
SCRT1		inactive
SCRT1	0.31	inactive
SCRT1	0.2	inactive
SCRT1	0.09	inactive

The list goes on, starting with the last 8 of the part before.
gene	TNF reporter robust z-score	Outcome
CHCHD3	-0.63	inactive
CHCHD3	-0.42	inactive
CHCHD3	1.31	inactive
CHCHD3	-0.41	inactive
SCRT1		inactive
SCRT1	0.31	inactive
SCRT1	0.2	inactive
SCRT1	0.09	inactive
PLPP2	1.15	inactive
PLPP2	0.68	inactive
PLPP2	-0.15	inactive
PLPP2	0.51	inactive
AVEN	0.11	inactive
AVEN	-0.39	inactive
AVEN	-0.19	inactive
AVEN	0.46	inactive
AEBP1	-1	inactive
AEBP1	-1.97	active
AEBP1	-1.31	inactive
AEBP1	-0.72	inactive
LINGO1	2.38	inactive
LINGO1	2.35	inactive
LINGO1	2.27	inactive
LINGO1	0.54	inactive
PLA2G3	0.47	inactive
PLA2G3	-0.21	inactive
PLA2G3	1.42	inactive
PLA2G3	0.54	inactive
IGFLR1	2.05	inactive
IGFLR1	7.49	active
IGFLR1	3.1	active
IGFLR1	1.95	inactive
TMEM208	-0.45	inactive
TMEM208	-0.98	inactive
TMEM208	-0.71	inactive
TMEM208	-0.05	inactive
